These are yes or no findings as the source states them, for the method shown. In cells and extracts the contact can be indirect. These calls come from enrichment with a bait or labelling near it, and not all partners need be listed.
Target: T1, Caveolin-1 (wild type) (dog) (UniProt P33724)
T1 sequence: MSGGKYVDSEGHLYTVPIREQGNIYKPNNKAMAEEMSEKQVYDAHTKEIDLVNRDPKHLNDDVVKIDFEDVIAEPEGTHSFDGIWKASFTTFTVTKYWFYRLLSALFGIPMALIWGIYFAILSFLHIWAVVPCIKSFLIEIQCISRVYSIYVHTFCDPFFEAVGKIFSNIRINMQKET
Assay: affinity purification with mass spectrometry; CAV1 immunoprecipitated with polyclonal anti-CAV1 on Dynabeads from B16F10(CAV1) cells (no E-cadherin); trypsin digest, nano-ESI-MS/MS on an LTQ ion trap, Mascot; only proteins unique to this sample listed

binding: binds
B1: Zinc finger protein 800 (protein, UniProt Q0VEE6 1-662)
chain: MPLRDKYCQTDHHHHGCCEPVYILEPGDPPLLQQPVQTSKSGIQQIIECFRSGTKQLKHILLKDVDTIFECKLCRSLFRGLPNLITHKKFYCPPSLQMDDNLPDVNDKQSQAISDLLEAIYPRVDKREYIIKLEPIETNQNAVFQYISRTDNPAEVTESSSTPEQTEVQIQETSSEQLKAVPDADTEVEEAIEPPSIETVVDEAAAPTEEQPQESQADLETSDSSDLGHQLICCLCRKEFNSRRGVRRHIRKVHKKKMEELKKYIETRKTPNQSSKGRSKSVLVSLSRSCPVCCKSFATKANVRRHFDEVHRGLRRDSITPDIATKPGQPLFLDSASPKKSFKTRKQKSSKAEYNLTACKCLLCKRKYSSQIMLKRHMQIVHKITLSGANSKREKGPNNTANSSEVKVELADSVESSPPSITHSPQNELKGTNHSNEKKNTPATQKNKVKQDSESPKSASPSAAGGQQKTRKPKLSAGFDFKQLYCKLCKRQFTSKQNLTKHIELHTDGNNIYVKFYKCPLCTYETRRKRDVIRHITVVHKKSSRYLGKITASLEIRAIKKPIDFVLNKVAKRGPSREEAKHNDSKQDGTSNSPSKKYEVADVGIEVKVTKNFSLHRCNKCGKAFAKKTYLEHHKKTHKANATNSPEGNKTKGRSTRSKALV

From publication PMC7190567
